We go through one molecule from article PMC8390757.

For this assay, the target named is FLAG-tagged PTENα (bait of the FLAG pull-down with mass spectrometry) (UniProt P60484). The experiment in a line: affinity purification with mass spectrometry; FLAG-tagged PTENα expressed in cells treated with 100 μM H2O2; whole-cell extracts on FLAG-beads, washed four times with PBS with 0.1% NP40, eluted with 3× FLAG-peptide, SDS-PAGE, in-gel trypsin digestion, LTQ Orbitrap Elite.

Results are given in words; binding and its absence hold for the method and conditions named. Binding seen in cells or lysates may run through a third protein. These calls come from enrichment with a bait or labelling near it, and not all partners need be listed.

B1: ZC3HAV1 (protein, UniProt Q3UPF5 1-996)
chain: MTDPEVFCFITKILCAHGGRMTLEELLGEISLPEAQLYELLKAAGPDRFVLLETGDQAGITRSVVATTRARVCRRKYCQRPCDSLHLCKLNLLGRCHYAQSQRNLCKYSHDVLSEQNFQVLKNHELSGLNQEELAVLLVQSDPFFMPEICKSYKGEGRKQICGQPQPCERLHICEHFTRGNCSYLNCLRSHNLMDRKVLAIMREHGLSSDVVQNIQDICNNKHTRRNPPSMRAPHPHRRGGAHRDRSKSRDRFHHNSLEVLSTVSPLGSGPPSPDVTGCKDPLEDVSADVTQKFKYLGTQDRAQLSSVSSKAAGVRGPSQMRASQEFLEDGDPDGLFSRNRSDSSTSRTSAAGFPLVAAQRNEAGAMKMGMPSGHHVEVKGKNEDIDRVPFLNSYIDGVTMEEATVSGILGKRATDNGLEEMILSSNHQKSVAKTQDPQTAGRITDSGQDTAFLHSKYEENPAWPGTSTHNGPNGFSQIMDETPNVSKSSPTGFGIKSAVTGGKEAVYSGVQSLRSHVLAMPGETTTPVQGSNRLPPSPLSSSTSHRVAASGSPGKSSTHASVSPASEPSRMMMMMSDPAEYSLCYIVNPVSPRMDDHGLKEICLDHLYRGCQQVNCNKNHFHLPYRWQLFILPTWMDFQDMEYIERAYCDPQIEIIVIEKHRINFKKMTCDSYPIRRLSTPSFVEKTLNSVFTTKWLWYWRNELNEYTQYGHESPSHTSSEINSAYLESFFHSCPRGVLQFHAGSQNYELSFQGMIQTNIASKTQRHVVRRPVFVSSKDVEQKRRGPDHQPVMPQADALTLFSSPQRNASTVSSNEYEFIELNNQDEEYAKISEQFKASMKQFKIVTIKRIWNQKLWDTFERKKQKMKNKTEMFLFHAVGRIHMDYICKNNFEWILHGNREIRYGKGNYFTKEAMYSHKSCSYDSRGTVMFVARVLVGSVIEGNMTLSSPPALYDSCVDTRLNPSVFVIFRKEQIYPEYVIEYMELEKEKGCIIS
On to B1, for which the binding entry was “binds”.
